Laboratory results reported in doi:10.1101/436147.
No constants are given. Whether binding was seen depends on the method and setting. In cells and extracts the contact can be indirect. A yes stands for co-enrichment or nearness to the bait. Other partners may have been found. For some of these results: A no says only that the protein was not detected with the bait. For some of these results: Tags and fused reporters may be left off the sequences shown. Values belong to the molecule of their own block, whether it stands above or below them.

By UniProt entry, the sequences of proteins in these tests, tags left out.
UniProt Q17963: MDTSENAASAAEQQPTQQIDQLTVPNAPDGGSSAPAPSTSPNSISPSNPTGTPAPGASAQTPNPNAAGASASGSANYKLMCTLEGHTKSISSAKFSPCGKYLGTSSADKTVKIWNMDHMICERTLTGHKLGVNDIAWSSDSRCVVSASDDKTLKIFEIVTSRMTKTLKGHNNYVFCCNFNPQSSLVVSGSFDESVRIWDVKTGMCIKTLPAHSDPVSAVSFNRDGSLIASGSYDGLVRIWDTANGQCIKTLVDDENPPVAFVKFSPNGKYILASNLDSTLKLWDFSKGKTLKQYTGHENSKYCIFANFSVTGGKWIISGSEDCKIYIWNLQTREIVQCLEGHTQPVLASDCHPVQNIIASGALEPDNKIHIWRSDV
UniProt Q18221: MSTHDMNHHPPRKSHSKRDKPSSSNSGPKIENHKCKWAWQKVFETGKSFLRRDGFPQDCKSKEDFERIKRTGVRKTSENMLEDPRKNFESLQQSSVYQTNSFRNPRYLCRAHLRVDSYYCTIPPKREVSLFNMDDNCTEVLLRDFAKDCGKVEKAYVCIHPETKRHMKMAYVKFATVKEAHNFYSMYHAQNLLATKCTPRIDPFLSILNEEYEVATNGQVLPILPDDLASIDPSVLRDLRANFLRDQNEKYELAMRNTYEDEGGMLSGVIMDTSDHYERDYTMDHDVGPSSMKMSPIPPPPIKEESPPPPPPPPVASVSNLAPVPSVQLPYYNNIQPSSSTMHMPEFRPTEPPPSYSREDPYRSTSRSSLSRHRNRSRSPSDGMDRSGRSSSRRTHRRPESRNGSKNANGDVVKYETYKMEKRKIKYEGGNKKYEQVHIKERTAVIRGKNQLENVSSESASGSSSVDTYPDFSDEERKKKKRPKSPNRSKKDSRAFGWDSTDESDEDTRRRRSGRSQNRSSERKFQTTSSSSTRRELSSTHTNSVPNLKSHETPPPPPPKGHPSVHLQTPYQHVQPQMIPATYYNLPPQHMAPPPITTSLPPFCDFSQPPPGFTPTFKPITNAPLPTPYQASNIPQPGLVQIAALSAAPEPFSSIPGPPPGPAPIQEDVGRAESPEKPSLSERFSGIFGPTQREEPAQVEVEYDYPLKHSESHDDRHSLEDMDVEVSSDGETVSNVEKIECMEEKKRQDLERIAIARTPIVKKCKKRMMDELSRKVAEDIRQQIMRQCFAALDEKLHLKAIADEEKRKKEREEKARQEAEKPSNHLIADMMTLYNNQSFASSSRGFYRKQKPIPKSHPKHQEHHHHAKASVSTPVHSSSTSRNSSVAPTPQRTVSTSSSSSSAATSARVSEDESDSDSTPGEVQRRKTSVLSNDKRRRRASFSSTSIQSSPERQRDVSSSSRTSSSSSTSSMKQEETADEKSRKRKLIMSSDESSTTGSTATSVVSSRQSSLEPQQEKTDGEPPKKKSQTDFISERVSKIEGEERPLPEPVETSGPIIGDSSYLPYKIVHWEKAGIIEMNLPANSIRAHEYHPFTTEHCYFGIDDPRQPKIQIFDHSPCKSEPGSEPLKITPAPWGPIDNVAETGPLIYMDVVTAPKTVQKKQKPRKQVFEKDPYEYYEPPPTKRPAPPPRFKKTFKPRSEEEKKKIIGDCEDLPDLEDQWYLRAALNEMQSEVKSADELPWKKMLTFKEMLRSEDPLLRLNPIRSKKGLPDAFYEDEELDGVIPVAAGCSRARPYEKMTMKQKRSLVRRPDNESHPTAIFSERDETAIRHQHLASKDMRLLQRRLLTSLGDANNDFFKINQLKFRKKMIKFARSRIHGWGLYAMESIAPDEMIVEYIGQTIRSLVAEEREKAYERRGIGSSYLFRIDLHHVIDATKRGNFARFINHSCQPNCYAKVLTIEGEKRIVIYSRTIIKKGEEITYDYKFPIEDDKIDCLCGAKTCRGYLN
UniProt O17695: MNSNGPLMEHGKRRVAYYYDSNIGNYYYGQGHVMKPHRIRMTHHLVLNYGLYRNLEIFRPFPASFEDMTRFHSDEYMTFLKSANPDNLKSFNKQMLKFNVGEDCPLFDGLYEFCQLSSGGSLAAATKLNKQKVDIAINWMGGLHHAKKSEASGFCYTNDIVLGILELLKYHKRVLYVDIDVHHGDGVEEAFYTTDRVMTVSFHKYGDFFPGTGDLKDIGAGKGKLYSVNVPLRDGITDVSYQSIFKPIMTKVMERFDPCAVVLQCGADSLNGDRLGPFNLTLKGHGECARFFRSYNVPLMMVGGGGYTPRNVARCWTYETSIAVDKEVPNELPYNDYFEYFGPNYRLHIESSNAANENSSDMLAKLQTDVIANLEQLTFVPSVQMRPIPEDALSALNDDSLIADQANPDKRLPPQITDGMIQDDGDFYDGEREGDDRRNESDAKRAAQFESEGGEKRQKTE
UniProt A5JYW9: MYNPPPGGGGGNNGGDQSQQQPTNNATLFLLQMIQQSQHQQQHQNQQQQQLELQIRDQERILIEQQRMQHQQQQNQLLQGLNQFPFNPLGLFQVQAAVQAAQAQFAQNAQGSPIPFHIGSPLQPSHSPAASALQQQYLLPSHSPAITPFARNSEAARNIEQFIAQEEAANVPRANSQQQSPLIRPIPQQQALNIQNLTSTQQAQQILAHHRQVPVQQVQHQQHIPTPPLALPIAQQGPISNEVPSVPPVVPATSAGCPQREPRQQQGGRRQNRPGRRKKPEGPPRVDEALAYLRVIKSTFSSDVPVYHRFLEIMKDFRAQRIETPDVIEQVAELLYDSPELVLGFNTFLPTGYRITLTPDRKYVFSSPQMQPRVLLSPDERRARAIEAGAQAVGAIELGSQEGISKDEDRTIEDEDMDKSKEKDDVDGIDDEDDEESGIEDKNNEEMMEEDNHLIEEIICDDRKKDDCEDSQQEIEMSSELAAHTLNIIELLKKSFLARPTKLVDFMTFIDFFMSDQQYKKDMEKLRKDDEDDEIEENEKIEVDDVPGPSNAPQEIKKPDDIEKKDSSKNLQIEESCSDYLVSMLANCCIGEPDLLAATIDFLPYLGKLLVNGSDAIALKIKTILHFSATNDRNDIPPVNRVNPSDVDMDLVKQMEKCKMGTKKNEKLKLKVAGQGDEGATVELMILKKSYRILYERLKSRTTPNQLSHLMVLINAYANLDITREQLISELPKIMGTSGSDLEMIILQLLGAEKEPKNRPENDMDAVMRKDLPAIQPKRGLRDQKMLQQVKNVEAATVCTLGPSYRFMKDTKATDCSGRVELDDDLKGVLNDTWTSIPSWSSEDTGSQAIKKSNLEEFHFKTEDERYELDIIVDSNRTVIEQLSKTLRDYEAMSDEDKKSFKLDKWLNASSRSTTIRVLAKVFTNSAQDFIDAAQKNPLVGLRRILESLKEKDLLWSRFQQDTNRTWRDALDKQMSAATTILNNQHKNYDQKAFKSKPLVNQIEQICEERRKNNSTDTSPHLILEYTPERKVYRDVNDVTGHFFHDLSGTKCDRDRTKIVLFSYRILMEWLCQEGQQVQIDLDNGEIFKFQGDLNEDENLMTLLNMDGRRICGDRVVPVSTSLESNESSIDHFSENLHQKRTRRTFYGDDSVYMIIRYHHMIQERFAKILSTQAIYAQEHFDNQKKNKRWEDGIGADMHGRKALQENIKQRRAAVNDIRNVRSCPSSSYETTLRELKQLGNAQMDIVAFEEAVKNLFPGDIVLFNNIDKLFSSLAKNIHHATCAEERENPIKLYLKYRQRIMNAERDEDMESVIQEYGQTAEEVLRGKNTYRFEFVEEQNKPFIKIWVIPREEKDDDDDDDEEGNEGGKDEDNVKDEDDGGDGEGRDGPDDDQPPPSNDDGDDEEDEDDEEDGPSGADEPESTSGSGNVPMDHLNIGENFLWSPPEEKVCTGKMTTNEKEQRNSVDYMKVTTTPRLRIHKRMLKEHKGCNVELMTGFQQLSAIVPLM

How the values were obtained:
CFP-1::GFP (C. elegans) = target: T1, CFP-1::GFP (C. elegans) (UniProt Q9XUE7); experiment: affinity purification with mass spectrometry
T1 sequence: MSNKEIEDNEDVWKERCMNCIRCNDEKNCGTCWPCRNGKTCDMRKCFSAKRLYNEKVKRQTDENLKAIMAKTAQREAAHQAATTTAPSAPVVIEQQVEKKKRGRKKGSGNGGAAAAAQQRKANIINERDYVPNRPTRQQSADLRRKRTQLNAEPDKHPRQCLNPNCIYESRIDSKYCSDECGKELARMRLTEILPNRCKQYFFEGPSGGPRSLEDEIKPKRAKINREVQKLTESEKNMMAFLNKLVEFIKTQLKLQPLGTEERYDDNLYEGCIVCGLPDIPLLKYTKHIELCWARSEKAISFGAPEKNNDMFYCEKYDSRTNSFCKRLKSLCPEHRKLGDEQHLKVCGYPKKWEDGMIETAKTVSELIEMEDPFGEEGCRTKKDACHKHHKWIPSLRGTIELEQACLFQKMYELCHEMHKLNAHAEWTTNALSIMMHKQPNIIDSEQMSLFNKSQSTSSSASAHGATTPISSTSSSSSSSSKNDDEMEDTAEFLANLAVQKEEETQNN

HA::WDR-5.1 (C. elegans) = HA::WDR-5.1 (C. elegans) (UniProt Q17963); experiment: affinity purification with mass spectrometry

- binding (CFP-1::GFP (C. elegans)): no binding
Molecule: PIS-1 (C. elegans (endogenous in embryos))

- binding (CFP-1::GFP (C. elegans)): binds
- binding (HA::WDR-5.1 (C. elegans)): binds
Molecule: SET-2 (from UniProt Q18221 1-1507)

- binding (CFP-1::GFP (C. elegans)): binds
Molecule: ATHP-1 (C. elegans (endogenous in embryos))

- binding (CFP-1::GFP (C. elegans)): binds
Molecule: SWD-2.1 (C. elegans (endogenous in embryos))

- binding (CFP-1::GFP (C. elegans)): binds
- binding (HA::WDR-5.1 (C. elegans)): binds
Molecule: HDA-1 (from UniProt O17695 1-461)

- binding (CFP-1::GFP (C. elegans)): no binding
Molecule: UTX-1 (C. elegans (endogenous in embryos))

- binding (CFP-1::GFP (C. elegans)): binds
- binding (HA::WDR-5.1 (C. elegans)): binds
Molecule: SIN-3 (from UniProt A5JYW9 1-1507)

- binding (CFP-1::GFP (C. elegans)): no binding
Molecule: SET-16 (C. elegans (endogenous in embryos))

- binding (HA::WDR-5.1 (C. elegans)): binds
B1: SUMV-1 (protein, UniProt P46582 1-1024)
chain: MKQTTRPPAQYIVAPGTRFRLVANEYDKNKYGQCNYASYRTLVRCKQIRSKEELAKHGGRCEEHVEFSKTLENNHKKEVMRCHAENDSKMQRRRFDPWIASNEYISDDDDYLQAAQTVPQRLPDVANDDILDNNSLRYAEYYTDKDILNIKMDLVQKDIDDLIEFKELVTSQAQKEHELLGNDEEEDYPTDMAQRRIFKASTKYSRNDYLTLTTIDPVFHQCCVGPDMDDSLVIVHTMHSILDKIDNFEPIDSEKQCNKPALHLSKFCFDHIILDRSQKMFDVCNACGLTAIGGVDPKCSFHIKSSAIAETTSCPCNRCVQPGEHASPKDEKNSITCYLNSSDDDEPTLGNLSRIESMVSPMQQFSNQSNTLTAPLPRRYQGPPAQVLRPPQMGPPPGINQVPYQPKANRTPPMTSQQLHEQQKLKMQEEEMMSQTCASDFRVRPIDASQFGGGKKKQRLPPRRSPSFGTSPNSYQFHQQSQKKMPSIISTAYNSSPGKMNFQGWKNQSTSSATRPLPQPRFPVHAARSQQPKMIPLEQTQDSIEDDIGPSPMFQGPEPSRRGVPYYKNAYRRTELPSRHAQHSPLTPSTSTSSSQLLAPPKSPQPGTSSQTFRSQASRLPIAPHRAIAAGLNPADVGTRPAYRSQMAGQRPGMTPSAQQGSPQLISPPRQGSMMPVAMNQSPQAVRRQTPVPPYRLMGPQRVTTSYTVVRSGSSSSVAGPSRSSVASGSQHTALDTVQHDPRLANINVRTFLSIGNRDLSTLTQDEIDLLMAGNSPEKGGRKAGAPGAKESSKAAGGAQKGTSAASTSVPEPTKSSESSVDPQSDVSFSNPSPAPEVIEKVAPAAMTITSNKRKIDETLASESTSSEATLIHDTTSSSSAETVSGEPPAKKSSDVSAPVPSPEKEKEKIDRPKTPKSSTKRTTPTPSGRTPRAAAIAANQAISHSKPNVPSASTSSSAASTDQENPLDLLAELSVAAAAEEQQQAIGSTSKNGGSTKKTQRKSPSRSSIGKKRENSEEYEEEL

- binding (HA::WDR-5.1 (C. elegans)): binds
B2: SUMV-2 (protein, UniProt Q22992 1-1145)
chain: MKPGRKSLPKKNRASNITEKMPTTSTEAQSSSSKNQDRCRSFSQELGVDDEPEEQQAPVATPKQTKKAQKTAKTTEEVKSPRKSARKSELKKPEPEEKAKEPRKSASKRKSSSLMNKDEPSTSTEAPSADVPGTSEASDEASEIQEAPENPNSALAIKKRLMGGGESSKSAPTKNPPKARKSNVKKPEKEAEALAPPEPPAEPQEAAETPAPEPLVPEKKPKIEDAPTTSSPKKSTPTSAPPTRASARVSKPNRLYADGSFNTEILGRTRITEQNPVKEAQAKESTPELADLPLPAGRRKSTAAPRAPPAPKPIPVINGVLRGYIPSVKVPLAEYEVDGEIINLNEGVNETMDTILAKVCEDGVEKHEDIDPKVVKAKKLAKIDYTKRLKLQVKKLDIQMRIKIPSTPEELGKRKRQAPKTDDFYWSAQSRTKLKGSSKEREETPAFDEESPIGGDEKRQQKARESISHLFDAEMDASIKEAKKYSVSFDKYIKPKITGALKHAKIKLMSRKRQSAEPDDFYYHELLVDQVSPSNSNVENVDVDVDIEETDDKVDPTEFEISEEGVIGIRDEAVDMAEQIALVIPRPTKHDGSPMSMDEIQMRAMEHVESRTKCLDGSLEIVLNQLGHEMAPPTRGVEEQGCQWHTVTSANAQALKNLYTIANNCTEDAITWTHQFMIENLEVHMLASYLSILKYAKRLNSSRFGYVISSTDQLDPEWTQVTSLLKSFVYKRHTEPGTEVLNNTIPYHRMTDTVFLLVPPTLTFGDHQRAPPRHHARIFRWLQSIGHQDSEFISFDEDIDATCSVAEYLSDVIVERICDKVRQKNKYRPNCNVVLVGYGASTYLIHRAANLVEGISAIISIGFPVMTSLGRRGTADDEILLTYCPTLFIVGAEGRRFNNEAITELRTSMISPSGLVVVGHSNDMILVPTSMLLRLGISQTVVFRMVLEKILDFLNLEPVRQQEFADLVPIELNNVFDLDSALLKSDKALSGLAFASSTHSASSSAAPSPVGASGRRATVTGAGSEDIAKRRKESIILSQQIAAPSISGPPPPAPSPRTEDRFLAFQNLVASTITTGDDMPRRASMGASPRVIERGDFRDHRPPPPPPLPILQNPVATPMSQQPPLPSPAPPPPRGPVDPASISLI

- binding (HA::WDR-5.1 (C. elegans)): binds
B3: OGT-1 (protein, UniProt O18158 1-1151)
chain: MEKPNYFQSYNKVIGATGEQLAPGAVPPHPVLAPSIAPGGVAGVSAANMANIMQTPGFANLVQQAIRTQLENQAAQQLAVNQQFQLNGATAVQQQLLLTPQQSLAQPIALAPQPTVVLNGVSETLKKVTELAHRQFQSGNYVEAEKYCNLVFQSDPNNLPTLLLLSAINFQTKNLEKSMQYSMLAIKVNNQCAEAYSNLGNYYKEKGQLQDALENYKLAVKLKPEFIDAYINLAAALVSGGDLEQAVTAYFNALQINPDLYCVRSDLGNLLKAMGRLEEAKVCYLKAIETQPQFAVAWSNLGCVFNSQGEIWLAIHHFEKAVTLDPNFLDAYINLGNVLKEARIFDRAVSAYLRALNLSGNHAVVHGNLACVYYEQGLIDLAIDTYKKAIDLQPHFPDAYCNLANALKEKGSVVEAEQMYMKALELCPTHADSQNNLANIKREQGKIEDATRLYLKALEIYPEFAAAHSNLASILQQQGKLNDAILHYKEAIRIAPTFADAYSNMGNTLKEMGDSSAAIACYNRAIQINPAFADAHSNLASIHKDAGNMAEAIQSYSTALKLKPDFPDAYCNLAHCHQIICDWNDYDKRVRKLVQIVEDQLCKKRLPSVHPHHSMLYPLSHAARIAIAAKHASLCFDKVHVQMLGKTPLIHADRFSVQNGQRLRIGYVSSDFGNHPTSHLMQSIPGMHDRSRVEVFCYALSVNDGTNFRSKLMNESEHFVDLSQIPCNGKAAEKIAQDGIHILINMNGYTKGARNEIFALRPAPIQVMWLGYPSTSGATFMDYIITDAVTSPLRLANAFTEKLAYMPHTFFIGDHAQMLRHLTDKVVVKDKETTERDSCLIMNTANMDPILAKSEIKEQVLDTEVVSGPNKELVRAEMVLPVLEVPTEPIKQMIMTGQMTMNVMEDMNVQNGLGQSQMHHKAATGEEIPNSVLLTSRAQYQLPDDAIVFCNFNQLYKIDPSTLDMWIKILENVPKSILWLLRFPYQGEEHIRKYCVERGLDPSRIVFSNVAAKEEHVRRGQLADVCLDTPLCNGHTTGMDILWTGTPMVTMPLESLASRVATSQLYALGVPELVAKTRQEYVSIAVRLGTDADHLANMRAKVWMARTSSTLFDVKQYCHDMEDLLGQMWKRYESGMPIDHITNNTETPHGL

- binding (CFP-1::GFP (C. elegans)): binds
- binding (HA::WDR-5.1 (C. elegans)): binds
B4: RBBP-5 (protein, UniProt Q09309 1-454)
chain: MVEILDRTYGAQFPEELECHLDLQNASANCCKFNRWGSIVAVGCTDGRVLIYDFMTRNIARTFSAHCLPVSCLSWSRDGRKLLTSSADNSIAMFDVLAGTLLHRIRFNSMVTFAMFHPRNDNKAIVLQVNKQPTVEQFSPRIQTVLANDTPGSSDESASCVSYDRKGKYIIAGTGKGKLLIYNAETLKCVAWCKQNTVQQIRQIIVPMKSRFIITNTQDRVIRTYELEDLLHQRGQMVEAKYKVLDMVNKAAWKNVCTDSDGLYVCGASTKAHSLYIWESNTGSLIKILHGNKGEALLDVQWHPTRPIILSIAQGTVSMWTQAHVENWSAFAPEFQELEENEKYIEKENEFDMEDEDADEDMTSKSQDAEDDIIDVVNVRPEDYLASSDEEDCNIMKPARNLESGPLWYIPVPLDIENADNDQRLPDDIRNLDNLLNPAWVASAKGYELSPKSK
